# Measured values published in patent US20020102245.
# No signal at the amounts used counts as a negative.
# Biological target: p53 (wild-type) (UniProt P04637)
# Test: activity in cells
# Settings: protein in cells, protein details: expressed from pCEP4 in SW480 cells, only the site is given
Sequence,"activity on this sequence (p53-dependent activation completely abrogated, SW480 luciferase reporter)","activity on this sequence (luciferase reporter with minimal E1B promoter, SW480, 2-3 copies gave more activation than 13 consensus copies of PG13-luc)"
CCTGTAGAATTATCCCAGAAATTTCCCTACTCCGTAC / GGAGTAGGGAAATTTCTGGGATAATTCTACAGGGTAC [BDS-2* (altered at critical p53-binding residues)],not active,–
"CCTGTAGCATTAGCCCAGACATGTCCCTACTCCGTAC / GGAGTAGGGACATGTCTGGGCTAATGCTACAGGGTAC [BDS-2 (14-3-3sigma p53 site, 37 bp, multimerized)]",–,active
